Data published in patent US10450343 (dated 2019).

Experiment: general procedure: Fmoc solid-phase peptide synthesis
Settings: whole synthesis

## [Asp(9)-H2O]-AVE0010
UV 215 nm
  crude HPLC purity: 23.4%
Area %
  final HPLC purity: 91.50%
